# Test results reported in the supplement of paper PMC6411743.
# ± gives the standard deviation of the averaged measurements. This is a selection; strong and weak results do not stand in their true shares.
# How the values were obtained:
# Assay in all cases: NP40-soluble protein abundance relative to vehicle (solubility fold change) (ratio); higher = more soluble protein in presence of AMP-PNP
# [1] = molecular target: T1, UniProt Q15813 and related entries
# T1 sequence (whole entry): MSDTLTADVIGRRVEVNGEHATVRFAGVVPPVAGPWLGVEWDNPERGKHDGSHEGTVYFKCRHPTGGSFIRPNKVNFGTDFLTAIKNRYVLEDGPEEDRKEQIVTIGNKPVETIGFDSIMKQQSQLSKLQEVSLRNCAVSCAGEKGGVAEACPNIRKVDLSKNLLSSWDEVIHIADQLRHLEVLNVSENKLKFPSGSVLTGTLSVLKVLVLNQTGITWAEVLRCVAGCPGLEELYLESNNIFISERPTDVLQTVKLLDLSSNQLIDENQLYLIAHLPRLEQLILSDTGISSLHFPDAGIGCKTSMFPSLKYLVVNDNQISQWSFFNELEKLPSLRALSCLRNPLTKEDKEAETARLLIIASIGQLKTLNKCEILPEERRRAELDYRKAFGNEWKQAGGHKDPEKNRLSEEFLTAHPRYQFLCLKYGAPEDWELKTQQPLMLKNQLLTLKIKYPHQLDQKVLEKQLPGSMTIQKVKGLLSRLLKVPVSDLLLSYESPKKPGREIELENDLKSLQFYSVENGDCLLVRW
# Procedure, shortened: (§1)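 Values are fold changes against the detergent-processed vehicle, based on vsn-normalised intensities. Jurkat crude lysate was treated at eight concentrations from 0.1 to 10 mM (10 min at room temperature, then 3 min at 37 °C), solubilised with 0.8% NP40 and benzonase, ultracentrifuged and analysed by TMT-labelled LC-MS/MS over three independent experiments.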
# UniProt Q16514-2|Q16514 = molecular target: T2, UniProt Q16514-2|Q16514
# T2 sequence (whole entry): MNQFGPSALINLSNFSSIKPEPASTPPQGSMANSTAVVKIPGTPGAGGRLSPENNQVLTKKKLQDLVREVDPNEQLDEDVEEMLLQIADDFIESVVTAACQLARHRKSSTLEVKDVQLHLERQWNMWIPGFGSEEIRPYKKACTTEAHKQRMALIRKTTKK
# Procedure, shortened: as §1
# [2] = molecular target: T3, UniProt Q2KHR2 and related entries
# T3 sequence (whole entry): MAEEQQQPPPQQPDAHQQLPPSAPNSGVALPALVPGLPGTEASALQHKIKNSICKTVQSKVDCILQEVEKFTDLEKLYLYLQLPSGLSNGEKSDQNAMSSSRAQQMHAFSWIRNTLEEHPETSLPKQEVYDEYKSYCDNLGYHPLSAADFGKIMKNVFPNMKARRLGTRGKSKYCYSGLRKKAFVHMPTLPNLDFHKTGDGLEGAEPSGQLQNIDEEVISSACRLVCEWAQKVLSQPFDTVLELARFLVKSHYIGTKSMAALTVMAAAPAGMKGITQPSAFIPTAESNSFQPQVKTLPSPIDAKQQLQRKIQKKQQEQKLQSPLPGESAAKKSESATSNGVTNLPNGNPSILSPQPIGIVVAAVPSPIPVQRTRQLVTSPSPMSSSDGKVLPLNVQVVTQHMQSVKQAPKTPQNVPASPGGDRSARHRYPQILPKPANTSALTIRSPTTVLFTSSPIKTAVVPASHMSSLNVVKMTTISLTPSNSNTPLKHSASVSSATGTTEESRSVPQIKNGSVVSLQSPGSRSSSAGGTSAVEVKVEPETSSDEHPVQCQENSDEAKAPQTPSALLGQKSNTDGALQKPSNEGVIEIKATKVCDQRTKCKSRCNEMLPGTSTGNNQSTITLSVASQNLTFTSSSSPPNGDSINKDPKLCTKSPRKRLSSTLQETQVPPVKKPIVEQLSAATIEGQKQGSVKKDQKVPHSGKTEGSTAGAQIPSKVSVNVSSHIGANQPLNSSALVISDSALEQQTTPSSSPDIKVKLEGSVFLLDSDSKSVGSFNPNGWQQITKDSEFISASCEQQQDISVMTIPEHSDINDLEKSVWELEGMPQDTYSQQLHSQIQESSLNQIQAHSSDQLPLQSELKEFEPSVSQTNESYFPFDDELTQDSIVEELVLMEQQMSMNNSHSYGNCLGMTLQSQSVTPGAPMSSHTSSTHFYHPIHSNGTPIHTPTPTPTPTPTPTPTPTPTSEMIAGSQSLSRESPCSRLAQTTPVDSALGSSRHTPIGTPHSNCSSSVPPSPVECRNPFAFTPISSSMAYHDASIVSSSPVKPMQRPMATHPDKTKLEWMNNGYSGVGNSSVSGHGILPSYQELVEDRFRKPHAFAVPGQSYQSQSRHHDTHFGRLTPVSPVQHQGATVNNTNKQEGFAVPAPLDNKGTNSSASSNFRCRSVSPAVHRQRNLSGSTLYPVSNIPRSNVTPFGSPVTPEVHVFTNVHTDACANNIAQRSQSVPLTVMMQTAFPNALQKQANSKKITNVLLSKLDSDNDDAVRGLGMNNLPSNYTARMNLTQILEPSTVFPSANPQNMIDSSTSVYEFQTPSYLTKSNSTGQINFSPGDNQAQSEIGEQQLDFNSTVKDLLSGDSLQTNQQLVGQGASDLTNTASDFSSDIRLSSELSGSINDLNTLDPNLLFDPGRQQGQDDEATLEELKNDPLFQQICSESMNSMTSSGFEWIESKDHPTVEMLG
# Procedure, shortened: as §1
# [3] = molecular target: T4, UniProt Q58A45 and related entries
# T4 sequence (whole entry): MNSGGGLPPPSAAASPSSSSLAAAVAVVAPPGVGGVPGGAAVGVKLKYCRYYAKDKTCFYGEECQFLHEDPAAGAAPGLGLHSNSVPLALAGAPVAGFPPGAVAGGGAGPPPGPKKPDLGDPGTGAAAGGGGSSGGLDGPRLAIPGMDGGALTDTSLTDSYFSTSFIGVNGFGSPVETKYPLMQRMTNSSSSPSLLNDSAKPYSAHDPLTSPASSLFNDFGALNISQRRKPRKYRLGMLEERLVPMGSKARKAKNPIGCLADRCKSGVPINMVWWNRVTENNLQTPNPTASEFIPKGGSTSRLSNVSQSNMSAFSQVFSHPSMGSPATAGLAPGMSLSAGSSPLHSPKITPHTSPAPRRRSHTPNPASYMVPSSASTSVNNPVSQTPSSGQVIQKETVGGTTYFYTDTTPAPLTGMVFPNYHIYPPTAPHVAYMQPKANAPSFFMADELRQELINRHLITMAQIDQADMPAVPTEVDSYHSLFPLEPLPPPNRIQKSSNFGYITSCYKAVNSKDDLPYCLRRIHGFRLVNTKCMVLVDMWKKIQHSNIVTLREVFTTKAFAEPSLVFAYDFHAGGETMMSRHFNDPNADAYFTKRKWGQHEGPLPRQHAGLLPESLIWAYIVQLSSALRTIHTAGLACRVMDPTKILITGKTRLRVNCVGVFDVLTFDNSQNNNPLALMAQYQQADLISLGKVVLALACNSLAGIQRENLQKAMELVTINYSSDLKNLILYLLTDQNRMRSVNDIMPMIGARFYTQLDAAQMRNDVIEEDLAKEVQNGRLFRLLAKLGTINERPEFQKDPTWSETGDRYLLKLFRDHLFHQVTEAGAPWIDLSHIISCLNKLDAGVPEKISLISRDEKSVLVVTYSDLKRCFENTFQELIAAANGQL
# Procedure, shortened: as §1
smiles,measurement,setting,value
Nc1ncnc2c1ncn2[C@@H]1O[C@H](COP(=O)(O)OP(=O)(O)NP(=O)(O)O)[C@@H](O)[C@H]1O [adenylyl imidodiphosphate],NP40-soluble protein abundance,[1]; concentration: 1mM,1.013 ± 0.01
same,NP40-soluble protein abundance,[1]; concentration: 2mM,0.983 ± 0.055
same,NP40-soluble protein abundance,[1]; concentration: 4mM,0.997 ± 0.033
same,NP40-soluble protein abundance,[1]; concentration: 6mM,0.986 ± 0.018
same,NP40-soluble protein abundance,[1]; concentration: 8mM,0.986 ± 0.027
same,NP40-soluble protein abundance,[1]; concentration: 10mM,0.977 ± 0.059
same,NP40-soluble protein abundance,UniProt Q16514-2|Q16514; concentration: 1mM,1.03 ± 0.024
same,NP40-soluble protein abundance,UniProt Q16514-2|Q16514; concentration: 2mM,1.08 ± 0.048
same,NP40-soluble protein abundance,UniProt Q16514-2|Q16514; concentration: 4mM,1.07 ± 0.026
same,NP40-soluble protein abundance,UniProt Q16514-2|Q16514; concentration: 6mM,1.06 ± 0.023
same,NP40-soluble protein abundance,UniProt Q16514-2|Q16514; concentration: 8mM,1.07 ± 0.056
same,NP40-soluble protein abundance,UniProt Q16514-2|Q16514; concentration: 10mM,1.09 ± 0.086
same,NP40-soluble protein abundance,[2]; concentration: 1mM,1.033 ± 0.0094
same,NP40-soluble protein abundance,[2]; concentration: 2mM,1.04 ± 0.038
same,NP40-soluble protein abundance,[2]; concentration: 4mM,1.025 ± 0.0096
same,NP40-soluble protein abundance,[2]; concentration: 6mM,1.01 ± 0.022
same,NP40-soluble protein abundance,[2]; concentration: 8mM,0.976 ± 0.019
same,NP40-soluble protein abundance,[2]; concentration: 10mM,0.98 ± 0.013
same,NP40-soluble protein abundance,[3]; concentration: 1mM,1.032 ± 0.0089
same,NP40-soluble protein abundance,[3]; concentration: 2mM,1.02 ± 0.024
same,NP40-soluble protein abundance,[3]; concentration: 4mM,1.02 ± 0.03
same,NP40-soluble protein abundance,[3]; concentration: 6mM,0.999 ± 0.026
same,NP40-soluble protein abundance,[3]; concentration: 8mM,1.03 ± 0.022
same,NP40-soluble protein abundance,[3]; concentration: 10mM,1.01 ± 0.022

# Quoted from the results shown for reference:
smiles,measurement,setting,value
Nc1ncnc2c1ncn2[C@@H]1O[C@H](COP(=O)(O)OP(=O)(O)NP(=O)(O)O)[C@@H](O)[C@H]1O [adenylyl imidodiphosphate],NP40-soluble protein abundance,[3]; concentration: 8mM,1.03 ± 0.022
same,NP40-soluble protein abundance,[3]; concentration: 10mM,1.01 ± 0.022
